The supplement of paper PMC5949888
Most values lie at the floor of the assay. Slopes are relative: functional sequences can read slightly below zero.

Tested on: Saccharomyces cerevisiae PS128 hsf1 delta, HSF1(1-493) fusion
Assay: growth estimate (transactivation domain function in HSF1 fusion, heat-shock survival) (a.u. (slope of normalised read count over time)); higher = stronger growth at 37°C, i.e. more transactivation activity
Details: library: random library
Protocol: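 Random 60-nt DNA library encoding peptides of up to 20 aa, fused to the C-terminus of yeast HSF1 residues 1-493 (C-terminal TAD deleted) and expressed from the native HSF1 promoter on a CEN plasmid in hsf1-deleted S. cerevisiae PS128. Cells were selected at 37°C on -trp 5-FOA plates for 0, 2, 4, 6 and 8 days and amplicons were sequenced. Growth estimate is the slope of a robust linear fit of total-sum-normalised read counts (normalised to the first time point) over time, using at least 2 replicates. Sequences are classed functional (TAD activity) above a threshold of -0.13, set from stop-codon control sequences.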

Substance | growth estimate
GVGVRMPKAAVDSGLGIDCS | < -0.25
GVGWIHRHSVIRFNRQDFDY | < -0.25
GVIGVPRGRMVRSLPVTVQL | < -0.25
GVISQ | < -0.25
GVITVALYGRVRRPTVMGK | < -0.25
GVK | < -0.25
GVLAEPPLYWMITPSHEQAK | < -0.25
GVLGYVTSKST | < -0.25
GVLKDFRVVGSPNGSINGYS | < -0.25
GVLRSVMGSAE | < -0.25
GVLSTDVTSSVTGRLKLWIE | < -0.25
GVLTRKSSPSIRVKTPLLV | < -0.25
GVNFC | < -0.25
GVNMYYSKHEQREGGGPEWV | < -0.25
GVPKGARYLVTIGSFLWRHP | < -0.25
GVPNDRCCVQRIRYNHP | < -0.25
GVPRYNVYIVDGTTGRRCQG | -0.245
GVPTYC | < -0.25
GVQC | < -0.25
GVRCLEI | < -0.25
GVRPVDLISFRIFFSIFRMF | < -0.25
GVRRFDWWKVIHGAWRPNQL | < -0.25
GVSAIRVQHQGLNGAINRSS | < -0.25
GVSDAGSLIDTCKGRFTAKS | < -0.25

Quoted from the listing.
GVNMYYSKHEQREGGGPEWV | growth estimate: < -0.25
GVSDAGSLIDTCKGRFTAKS | growth estimate: < -0.25

(next part)

Substance | growth estimate
GVSDLCWELCVPLIASSAVM | < -0.25
GVSDVGSNTEPPWGAIVSWP | < -0.25
GVSFMRLTLLNSTYVPLSFF | < -0.25
GVSGQ | < -0.25
GVSRPLLSASSRLTTVLADC | < -0.25
GVSRYMG | < -0.25
GVSSLRDVTGRW | -0.25
GVSVD | < -0.25
GVSVFNIIASYFECLVRYFR | < -0.25
GVVAF | < -0.25
GVVGSRERRITCGLCSVLI | < -0.25
GVVKGKENKCMLGLQTARQH | < -0.25
GVVL | < -0.25
GVVLRADSGIVSF | < -0.25
GVVVLLRTGSTTGYSVGEHS | < -0.25
GVYKQRADSHFYTAQRQVRV | -0.202
GVYLLNPGSRCWPTATGCSL | < -0.25
GWATRHGGTESLVRT | < -0.25
GWFESA | < -0.25
GWGKSIGYLVIS | < -0.25
GWGNPVA | < -0.25
GWGVADSNPGNRGPCPTIWI | < -0.25
GWKTLRIIDSG | < -0.25
GWLSGRMPKHMKGKVGVRRQ | -0.152

Substance | growth estimate
GWM | < -0.25
GWMPLIAGVKSPTANSVILT | < -0.25
GWRFANQSTTRGPECLRFPV | < -0.25
GWRHRASLPRGFFSGFLAPC | < -0.25
GWRPSSTYGCCAPLSGIGAL | < -0.25
GWSLQVPVTRLESSSRQRKL | < -0.25
GWSVLMD | < -0.25
GWVVSQGRGLCAEHSGGVCR | < -0.25
GWWSFQTVFRG | < -0.25
GWYSGWRRLGLGDASDQVAA | < -0.25
GYCHQLYTEFGREIAACEYD | < -0.25
GYCLFLRDFPNVRKHCSPHA | < -0.25
GYERENHQVAWH | < -0.25
GYESHLMSIFGRYEGQVATY | < -0.25
GYFPDLGMNGDPHQGW | -0.236
GYGGAAREDPQF | < -0.25
GYGLAQRRGSLKNPGSQHDT | < -0.25
GYGRLRLF | < -0.25
GYGTYNAMLSY | < -0.25
GYIL | < -0.25
GYILVL | < -0.25
GYIRLDRVGFSRRARHVVSY | < -0.25
GYPEDPVHHGGRISGNPPVF | < -0.25
GYPGPLSRFCS | -0.243

An excerpt taken from the entries so far:
Substance | growth estimate
GWMPLIAGVKSPTANSVILT | < -0.25
GWRFANQSTTRGPECLRFPV | < -0.25
GWRHRASLPRGFFSGFLAPC | < -0.25
GWRPSSTYGCCAPLSGIGAL | < -0.25

Additional records follow:

Substance | growth estimate
GYQFTTTLGTECKRAKVSGG | -0.243
GYRLDWLVY | < -0.25
GYRLERGGPTACQDTKARKG | < -0.25
GYRLRPR | < -0.25
GYRPATWWSADGRLCYIRIP | < -0.25
GYRQAEAVASLEEQLGVLIH | < -0.25
GYRQIHTLVHALIRVRCERP | < -0.25
GYRRFGGSYMHRRECQHGLL | < -0.25
GYSNCG | < -0.25
GYST | < -0.25
GYTRGTEYSNHGRINSREVG | < -0.25
GYVIRAPVVLARMVQRNDGS | < -0.25
GYVLCTER | < -0.25
GYVQI | < -0.25
GYWEKIGLVI | < -0.25
GYYPLGNSSRSCITQGRHVL | < -0.25
HAASGPV | < -0.25
HACSLEALERVGRHCRNPCY | < -0.25
HAEHQCEGRGPVTCMN | < -0.25
HAFERFLYLKLAQWYNARRA | < -0.25
HAFFSSMGRRTAIPHSPVQR | -0.243
HAGCRTLFG | < -0.25
